Among all 400,000 compounds or so, about 13,000 (3.2%) were called active. The inconclusive results got no clear call from the source; some entries with a clear call stand among them for comparison. Calls come from the whole dose curve; as a rule, active = well fitted cell-killing curve with a large enough effect; inconclusive = small, poorly fitted or top-dose-only effect, or effect the other way; inactive = flat fitted curve, though single readings scatter. Potencies beside an inconclusive call are fits to weak or partial responses and may not hold up.
Test: qHTS assay for MDR1-selective chemotherapeutics: Primary screen using the drug-selected MDR subline cells KB-V1; note: nearly all actives have a fitted effect of over 60% in size
Settings: KB-V1 MDR cells viability, CellTiter-Glo, 72 h; activity change, negative = cytotoxicity: at 46.1 µM (top of the series)
Outline: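 Cytotoxicity toward P-gp-expressing KB-V1 cells was determined as loss of CellTiter-Glo luminescence after 72 h at 37 degrees C. Compounds were tested in quantitative HTS format across a concentration range, with curves fitted to normalized data.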
% is set by controls: 0 for no effect and ±100 for the full control effect; potency is the fitted concentration of half-maximal effect.

SMILES	Potency	activity change, negative = cytotoxicity
CC(C)OC(=O)c1cn(-c2ccccc2)nc1-c1ccc2c(c1)OCCO2	active: 7.31 µM	
CCOC(=O)c1c(-c2ccc(OC)cc2)csc1NC(=O)CNCc1ccco1	active: 10.3 µM	
CCCCCCN(CCCCCC)c1ccc(/C=C/c2ccnc3ccccc23)cc1		inactive: 2.52%
Cc1cccc(N2CC(c3nc4ccccc4n3CCC3CCCCC3)CC2=O)c1 (stereo not given)		inactive: -18.3%
COc1ccccc1CNc1nc(Nc2ccccc2-n2cccn2)c2sccc2n1	inconclusive: 23.1 µM [cytotoxic, single point]	
Cc1c(C(=O)N2CCCCC2)c(S(=O)(=O)N2CCc3ccccc32)c(C)n1C	inconclusive: 7.31 µM [rising, partial curve, poor fit]	
COc1ccccc1Cn1c(=O)c2ccccc2n2c(SCc3csc(C)n3)nnc12	inconclusive: 9.2 µM [cytotoxic, partial curve, poor fit]	
Cc1ccc(C)c(S(=O)(=O)Nc2ccc(C(=O)N3CCCCC3)cc2)c1	inconclusive: 29.1 µM [cytotoxic, single point]	
N#Cc1ccc2sn(-c3ccccc3)c(=O)c2c1	inconclusive: 29.1 µM [rising, single point]	
Cc1cccc(NC(=S)NCC(c2cccnc2)N(C)C)c1C (stereo not given)	inconclusive: 29.1 µM [rising, single point]	
Cc1cc(C(=O)Cn2nnc(-c3ccc(Cl)cc3)n2)c(C)n1CC1CCCO1 (stereo not given)	inconclusive: 20.6 µM [cytotoxic, single point]	
COC(=O)c1ccc(CNC(=O)CSc2nc3ccccc3[nH]2)cc1		inactive: 3.18%
Cc1ccc(OCCNS(=O)(=O)c2ccc(N3CCCC3=O)cc2)cc1C	active: 16.4 µM	
CCO[C@@H]1OC(C(=O)O)=C[C@H](C2CCCCC2)[C@H]1CCCO	inconclusive: 32.6 µM [rising, single point]	
Cc1cc(Br)cn2c(Cc3ccsc3)c(-c3ccccc3)nc12		inactive: 0%
CC1(C)Cc2c(C#N)c(NCC3CCCO3)nc(-c3ccco3)c2CO1 (stereo not given)	inconclusive: 5.17 µM [cytotoxic, partial curve]	
C[C@@H]1CN([C@@H](C)CO)C(=O)c2cc(Br)cnc2O[C@H]1CN(C)C(=O)c1ccccc1F		inactive: -0.942%
CCO[C@@H]1OC(C(=O)NCc2nc3ccccc3[nH]2)=C[C@H](c2csc3ccccc23)[C@H]1CCCO		inactive: 3.64%
COc1ccc(C(=O)N2CCCCC2c2cc(C(=O)NCc3ccc(Cl)c(Cl)c3)no2)cc1 (stereo not given)	inconclusive: 23.1 µM [cytotoxic, single point]	
CN1CCC[C@@H]1CCO[C@](C)(c1ccccc1)c1ccc(Cl)cc1	inconclusive: 18.4 µM [cytotoxic, single point]	
COc1ccc(/C=C/c2cc(C(=O)O)c3ccccc3n2)cc1	inconclusive: 18.4 µM [cytotoxic, single point]	
CCCCCCP(=O)(O)c1ccccc1		inactive: 6.52%
CCCCNC(=O)C1c2ccccc2OCC(=O)N1CC(F)(F)F (stereo not given)		inactive: 0%

SMILES	Potency	activity change, negative = cytotoxicity
COc1ccc(NC(=O)c2oc3ccccc3c2NC(=O)C(C)(C)C)cc1	active: 9.2 µM	
CCOc1ccc(NC(=O)[C@H]2O[C@@H]3OC(C)(C)O[C@@H]3[C@H]3OC(C)(C)O[C@H]32)cc1	inconclusive: 5.8 µM [cytotoxic, full curve]	
COCC1CCCCN1C(=O)c1ccc2nc(Cc3ccc(OC)c(OC)c3)oc2c1 (stereo not given)		inactive: -25.2%
Cc1nn(Cc2ccccc2)c(C)c1C(=O)NCCN1C(=O)S/C(=C\c2ccc(F)cc2)C1=O	inconclusive: 20.6 µM [cytotoxic, single point]	
N#C/C(=C\c1cc([N+](=O)[O-])c(N2CCOCC2)cc1N1CCOCC1)c1nc2ccccc2[nH]1	inconclusive: 18.4 µM [cytotoxic, single point]	
CCc1cccc(NC(=O)c2cc(OC)c(OC)c(OC)c2)c1	inconclusive: 23.1 µM [cytotoxic, partial curve, poor fit]	
CCOC(=O)N1CCc2c(sc(NC(=O)C3COc4ccccc4O3)c2C(N)=O)C1 (stereo not given)	inconclusive: 29.1 µM [cytotoxic, single point]	
COC(=O)Cc1c(C)c2ccc(OCC(=O)N3CCC(C)CC3)c(C)c2oc1=O	inconclusive: 5.8 µM [cytotoxic, partial curve, poor fit]	
O=c1c(N2CCN(c3cccc(Cl)c3)CC2)csc2ccccc12		inactive: -6.5%
CC1CCCCN1CCCNC(=O)c1ccc2c(c1)sc1nc(-c3ccc(F)cc3)cn12 (stereo not given)	active: 20.6 µM	
COc1ccc(NC(=O)c2cc(F)cc(F)c2)cc1Cl	inconclusive: 20.6 µM [cytotoxic, single point]	
O=C(C(Cl)Cl)N1CC2CCC(CC2)C1	inconclusive: 3.26 µM [rising, partial curve, poor fit]	
CCOc1ccccc1C(=O)Nc1cc(Cl)ccc1O	inconclusive: 23.1 µM [cytotoxic, single point]	
Cc1ccccc1-n1ccnc1SCC(=O)NCc1ccco1		inactive: -26%
CCOc1ccc(CN(C(=O)c2nc(SC)ncc2Cl)C2CCS(=O)(=O)C2)cc1 (stereo not given)		inactive: 3.93%
CCN(CC)c1ccc(-c2nn3c(-c4cccnc4)nnc3s2)cc1	active: 7.31 µM	
S=C(NCc1ccc2c(c1)OCO2)NCc1ccc2c(c1)OCO2	inconclusive: 14.6 µM [rising, partial curve]	
Cc1cc(=O)n2nc(N3CCC(C(=O)N4CCN(c5ccccc5)CC4)CC3)sc2n1		inactive: -6.04%
CC(C)(C)OC(=O)N1CCC(c2c(C(=O)N3CCN(c4ccccn4)CC3)cnn2-c2cccc(F)c2)CC1		inactive: 14.1%
FC(F)(F)c1ccccc1NC(=S)N1CCc2ccccc2C1	inconclusive: 32.6 µM [cytotoxic, partial curve, poor fit]	
O=S1(=O)N[C@@H](Cc2ccccc2)COc2cc(N3CC[C@H](O)C3)ccc21	inconclusive: 18.4 µM [cytotoxic, single point]	
CCOC(=O)c1c(CSc2ccccc2)oc2ccc(O)cc12		inactive: -12.9%
C=CCn1c(SCC(=O)N2CCOCC2)nc(O)c(Cc2ccccc2)c1=O		inactive: 24.3%
CN1C2C=CC(=O)C1C1C(=O)N(c3ccccc3)C(=O)C12 (stereo not given)	inconclusive: 29.1 µM [cytotoxic, single point]	

3 records drawn at random from those above:
SMILES	Potency	activity change, negative = cytotoxicity
CC(C)(C)OC(=O)N1CCC(c2c(C(=O)N3CCN(c4ccccn4)CC3)cnn2-c2cccc(F)c2)CC1		inactive: 14.1%
CCOC(=O)c1c(CSc2ccccc2)oc2ccc(O)cc12		inactive: -12.9%
CC1CCCCN1CCCNC(=O)c1ccc2c(c1)sc1nc(-c3ccc(F)cc3)cn12 (stereo not given)	active: 20.6 µM	

Next entries follow.

SMILES	Potency	activity change, negative = cytotoxicity
Cc1onc(-c2ccccc2)c1CNC(=O)C1COc2ccccc2O1 (stereo not given)	inconclusive: 14.6 µM [cytotoxic, partial curve]	
CC(C)(C)NC(=O)C(c1ccncc1)n1c(-c2ccc(C(F)(F)F)cc2)nc2ccccc21 (stereo not given)	inconclusive: 13 µM [cytotoxic, partial curve]	
O=C1CC(c2ccsc2)c2cc3c(cc2N1)OCCO3 (stereo not given)	inconclusive: 29.1 µM [cytotoxic, single point]	
O=C(COC(=O)c1cccc(O)c1)Nc1ccc(S(=O)(=O)N2CCOCC2)cc1	inconclusive: 29.1 µM [rising, single point]	
O=C(Nc1c2c(nn1-c1ccc(Cl)cc1)CS(=O)(=O)C2)C1CC1		inactive: 18.6%
C=CCn1c(CNS(=O)(=O)c2ccc(Cl)cc2)n[nH]c1=S		inactive: 18.5%
O=C(NC1CCN(Cc2ccccc2)CC1)c1c(Cl)cccc1Cl		inactive: -5.03%
O=C(Nc1cccc(C(F)(F)F)c1)c1cc2nc(-c3ccco3)cc(C(F)(F)Cl)n2n1	inconclusive: 29.1 µM [rising, single point]	
CC(/C=N\NC(=O)Cn1c(C)nc2ccccc21)=C\c1ccccc1	inconclusive: 32.6 µM [cytotoxic, partial curve, poor fit]	
Cc1cc(C)c(Cn2c(=O)n(Cc3ccccc3)c(=O)c3c(C)c(C)sc32)c(C)c1		inactive: 20.1%
CCOC(=O)c1cc(C#N)c(Oc2ccc(F)cc2)nc1-c1ccccc1	active: 9.2 µM	
O=C(CSc1nccn1Cc1ccccc1)Nc1nc2ccccc2s1		inactive: 0%
Cc1cc(C)n2nc(SCC(=O)c3cc(C)n(CC4CCCO4)c3C)nc2n1 (stereo not given)	inconclusive: 11.6 µM [cytotoxic, partial curve]	
Cc1noc(C)c1NC(=O)Nc1ccc2c(c1)CC(=O)N([C@@H](C)CO)C[C@@H](C)[C@@H](CN(C)C(=O)Nc1cccc3ccccc13)O2		inactive: 3.77%
CCOC(=O)c1c(C)n(C)c2cc(OCCN(CC)CC)ccc12	inconclusive: 13 µM [cytotoxic, single point]	
Cc1ccc(S(=O)(=O)c2nnn(CC(=O)Nc3ccccc3C)c2N)cc1	inconclusive: 10.3 µM [rising, partial curve, poor fit]	
Cc1ccc(NC(=O)COc2cccnc2[N+](=O)[O-])cc1S(=O)(=O)N1CCCCC1	inconclusive: 20.6 µM [cytotoxic, single point]	
O=C(c1cc(Cl)cc(Cl)c1)N1CCC(=O)N([C@H](COCc2ccccc2)Cc2ccccc2)CC1	inconclusive: 8.2 µM [cytotoxic, partial curve]	
O=C(CSc1nnc2c(Cl)cc(C(F)(F)F)cn12)Nc1ccc2c(c1)OCO2	inconclusive: 14.6 µM [cytotoxic, partial curve]	
COC(=O)C1=C(C(=O)OC)C2C(C)=CC(C)=CN2C(C(=O)OC)=C1C(=O)OC (stereo not given)	inconclusive: 6.51 µM [cytotoxic, partial curve]	
COc1ccc(C)cc1S(=O)(=O)N1CCN(S(=O)(=O)c2cc(C(=O)O)ccc2C)CC1		inactive: -2.45%
Cc1ccc(C2CC(c3ccccc3)=NN2C(=O)CSc2nnc(-c3ccncc3)n2C)o1 (stereo not given)	inconclusive: 23.1 µM [cytotoxic, partial curve, poor fit]	
